# Values from PubChem BioAssay AID1224830 (NIAID, 2016).
# Assay: 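Genes whose knock-down alters the TNF-alpha reporter response to LPS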 (primary screen)
# Cell system: human THP-1 monocytic leukaemia cells, TNF dual-luciferase reporter clone, PMA-differentiated to macrophage-like cells
# Knock-down reagent: siRNA pool against human genes, 50 nM
# Duration: LPS for 4 h, given about 3 days after siRNA transfection
# Conditions: bacterial LPS (TLR4 ligand), 10 ng/ml
# Read-out: 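Ratio of firefly to renilla light, scaled to the plate median and expressed as a robust z-score per replicate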
# Direction: TNF reporter robust z-score: higher = stronger TNF reporter response to LPS
# Call rule: 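Each well counts as active if its z-score is over 2.8 or under -1.5; controls are left without a call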
# In all, the deposit lists about 18,000 reagents; this is an unselected part. About 2,900 of them (16%) were called active. 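Calls are made per well; low scores hint the gene aids the LPS response, high scores that it dampens it.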 Unmarked entries are inactive. Repeated entries: four replicate wells of each siRNA pool.
target gene,PubChem SID,TNF reporter robust z-score
MICOS10,SID315464913,-0.14
MICOS10,SID315464913,0.55
MICOS10,SID315464913,0.05
MICOS10,SID315464913,-0.18
RIN2,SID315457008,-0.59
RIN2,SID315457008,-0.11
RIN2,SID315457008,0.1
RIN2,SID315457008,-0.43
DVL3,SID315448411,0.18
DVL3,SID315448411,0.73
DVL3,SID315448411,0.57
DVL3,SID315448411,1.13
TECPR2,SID315453653,-0.65
TECPR2,SID315453653,-0.48
TECPR2,SID315453653,-0.2
TECPR2,SID315453653,-0.34
LZTS1,SID315454666,0.22
LZTS1,SID315454666,2.04
LZTS1,SID315454666,1.29
LZTS1,SID315454666,1.41
LMTK3,SID315461234,-1.19
LMTK3,SID315461234,-0.81
LMTK3,SID315461234,-1.17
LMTK3,SID315461234,-0.35
TBX22,SID315456387,0.13
TBX22,SID315456387,-0.02
TBX22,SID315456387,0.37
TBX22,SID315456387,0.4

In a second layout: results already given.
| target gene | PubChem SID | TNF reporter robust z-score |
| --- | --- | --- |
| TECPR2 | SID315453653 | -0.65 |
| TECPR2 | SID315453653 | -0.48 |
| TECPR2 | SID315453653 | -0.2 |
| TECPR2 | SID315453653 | -0.34 |
| LZTS1 | SID315454666 | 0.22 |
| LZTS1 | SID315454666 | 2.04 |
| LZTS1 | SID315454666 | 1.29 |

Next entries follow:
target gene,PubChem SID,TNF reporter robust z-score
EIF3G,SID315452730,-0.21
EIF3G,SID315452730,0.28
EIF3G,SID315452730,0.27
EIF3G,SID315452730,0.1
ESM1,SID315454587,-0.52
ESM1,SID315454587,-0.39
ESM1,SID315454587,-0.76
ESM1,SID315454587,0.13
OR2AK2,SID315464681,-1.17
OR2AK2,SID315464681,-1.01
OR2AK2,SID315464681,-1.44
OR2AK2,SID315464681,-0.68
DEFA6,SID315448289,-0.08
DEFA6,SID315448289,1.37
DEFA6,SID315448289,1.72
DEFA6,SID315448289,0.51
PCM1,SID315450452,0.11
PCM1,SID315450452,0.54
PCM1,SID315450452,0.35
PCM1,SID315450452,0.62
